According to publication PMC3735541:
These are yes or no findings as the source states them, for the method shown. Some binding calls cover weakened binding; strength is not graded here.

The chains behind the UniProt entries cited, without tags or fusion partners.
UniProt P18887: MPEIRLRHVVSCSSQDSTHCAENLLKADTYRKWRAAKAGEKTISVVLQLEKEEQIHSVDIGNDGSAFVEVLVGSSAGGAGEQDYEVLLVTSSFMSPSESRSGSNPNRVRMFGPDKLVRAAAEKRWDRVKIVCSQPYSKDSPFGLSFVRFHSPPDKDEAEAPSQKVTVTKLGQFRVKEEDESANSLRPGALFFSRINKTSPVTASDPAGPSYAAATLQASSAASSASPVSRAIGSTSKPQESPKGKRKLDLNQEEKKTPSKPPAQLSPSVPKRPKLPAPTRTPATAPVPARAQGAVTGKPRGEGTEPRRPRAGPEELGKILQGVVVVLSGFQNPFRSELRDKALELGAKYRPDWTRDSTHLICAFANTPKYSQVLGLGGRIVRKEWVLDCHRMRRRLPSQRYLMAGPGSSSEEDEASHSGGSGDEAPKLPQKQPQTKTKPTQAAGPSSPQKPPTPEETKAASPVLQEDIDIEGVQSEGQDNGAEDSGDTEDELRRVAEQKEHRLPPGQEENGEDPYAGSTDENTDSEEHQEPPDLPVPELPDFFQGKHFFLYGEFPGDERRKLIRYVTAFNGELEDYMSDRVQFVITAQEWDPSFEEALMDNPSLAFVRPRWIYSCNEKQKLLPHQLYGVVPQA
UniProt P27695: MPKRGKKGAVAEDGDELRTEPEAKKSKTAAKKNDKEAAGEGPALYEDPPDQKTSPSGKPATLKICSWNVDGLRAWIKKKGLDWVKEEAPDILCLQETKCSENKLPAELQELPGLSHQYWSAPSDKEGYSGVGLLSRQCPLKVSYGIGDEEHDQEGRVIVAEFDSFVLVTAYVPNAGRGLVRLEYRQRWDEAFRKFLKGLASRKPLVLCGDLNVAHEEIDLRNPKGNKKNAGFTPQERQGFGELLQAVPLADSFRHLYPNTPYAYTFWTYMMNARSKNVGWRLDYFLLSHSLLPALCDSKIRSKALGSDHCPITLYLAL

Biological target: human X-ray crosscomplementing protein 1 (hXRCC1), full-length, with an N-terminal histidine tag (human) (UniProt P18887)
Assay: pull-down; 350 pmol His-tagged hXRCC1 incubated 1 h with 114 pmol hAPE1 or 130 pmol DNA polymerase beta in 40 ul; Ni-NTA agarose added, washed with 25 mM imidazole, eluted with 250 mM imidazole; SDS-PAGE with Coomassie staining; according to ref. 18 with minor changes; both purified

binding: binds
Substance: human apurinic/apyrimidinic endonuclease 1 (hAPE1) (from UniProt P27695 1-318) (enzyme; other documents disagree on this pair)
